## Primary screen of a compound library

Source: ChEMBL document CHEMBL3988442, “University of Dundee, Small-Polar-MMV Screening Library” (2021).

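Whole-cell assay for inhibitors of Mycobacterium tuberculosis growth, labelled Cornell in the record; the read-out is not stated. The concentration is filed as 10 mM, unlikely as a test dose, so the dose is not known. Higher means stronger inhibition (inferred from two other growth screens of the library). Size under these conditions: about 53,000 compounds, about 900 of them at 50% or above in at least one test.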

Values are the deposited “Percent Effect”, in %. The record does not define 0% and 100%; most values in the screen are far below 50% and negative numbers occur (in some assays of this library far below -100). Compounds were drawn at random from those tested, without regard to their results.

- COCCCNC(=O)CN(C)C(=O)CN(C)c1ccc(C#N)cn1 : -24.59%
- O=C(N[C@@H]1CCC[C@@H](N2CCCC2)[C@@H]1O)c1cnn2cccnc12 : -2.756%
- O=C(C1CCOC1)N1CCc2ncnc(C3CC3)c2CC1 (configuration not stated) : 11.09%
- Cc1cc(C)nc(NC2CCN(CCOC(C)C)CC2)n1 : 17.77%
- Cc1ccc(C2CCCCCN2C(=O)Nc2cn[nH]c2)o1 (configuration not stated) : 19.05%
- C/C=C(\C)CN1C[C@@H](NC(=O)c2ccc(O)c(Cl)c2)C[C@H]1C(=O)NCC : 20.98%
- O=C(CC1=CSC2=NCCCN12)N1CCCCC1c1cccc(F)c1 (configuration not stated) : -8.3%
- NC(=O)N1CCc2ncc(CNC(=O)CC3CC3)n2CC1 : -19.97%
- Cc1nc(CN2CCCC(NCc3c(C)nc4sccn34)C2)no1 (configuration not stated) : -6.391%
- Cc1cc(C(F)(F)F)nn1CCNC(=O)C(C)n1ccnc1C(C)C (configuration not stated) : -50.73%
- O=C(O)C(F)(F)F.[H][C@@]12CCN(C3CCOCC3)C[C@@]1([H])[C@H](C(=O)NC1CC1)CCO2 : -33.59%
- CC(C)NC(=O)c1sc2ccccc2c1[C@H]1CC[C@H](CN)CC1.Cl : -23.07%
- O=C(O)C(F)(F)F.O=C1COC2(CCN(Cc3ccsc3)CC2)CN1 : 20.12%
- COc1ccccc1CN(CCCn1ccnc1)CC1CCOC1.O=C(O)CC(O)(CC(=O)O)C(=O)O (configuration not stated) : 1.044%
- O=C(O)c1cccc(CC2CCN(c3cnccn3)CC2)c1 : 26.69%
- CC(C)CN1Cc2nc(N)ncc2C1=O : 0.3963%
- Cc1cc(C)n(CC2(CNC(=O)C(c3ccccc3C)N(C)C)CC2)n1 (configuration not stated) : 20.26%
- c1cncc(COCC2CN(Cc3ccncc3)Cc3ccnn3C2)c1 (configuration not stated) : -4.253%
- CN1CCC(N(Cc2ccco2)S(=O)(=O)c2cc(Br)ccc2Br)CC1 : 17.24%
- CS(=O)(=O)N[C@H]1CN(CCOCc2ccccc2)C[C@@H]1C1CC1 : -0.6388%
- CCC(CC)CN1CCN(CC(=O)Nc2cccc3nsnc23)CC1 : 12.98%
- Br.Cc1cc(C)c(N(CC(O)CNCc2ccccc2)S(C)(=O)=O)c(C)c1 (configuration not stated) : 7.618%
- CC1c2ncc(Cn3cncn3)n2CCN1C(=O)N(C)C (configuration not stated) : 24.44%
- NS(=O)(=O)c1ccc(CNCC(=O)NCc2ccc(Cl)cc2Cl)cc1 : -9.02%
- CCNCCc1nc2cc(F)ccc2[nH]1.Cl : 15.8%
- COc1nc(C)c(C(=O)N2CCc3[nH]nc(Cc4ccccc4)c3C2)s1 : 5.832%
- Cc1nc(S(=O)(=O)CCn2cccn2)n(C2CCCC2)c1C : 33.04%
- Cc1nc[nH]c1CN(C)CC1CCCN(CCc2ccc(Cl)cc2)C1 (configuration not stated) : -28.77%
- OCC1CN(Cc2nc(C(F)(F)F)cs2)c2ccccc2O1 (configuration not stated) : 105.7%
- COCCNS(=O)(=O)c1cccc2c1CN(C(=O)c1ccoc1)CC2 : 26.79%
- COCCN(Cc1c(C)nn(C)c1C)C(=O)C1COc2ccccc2C1 (configuration not stated) : -7.887%
- CC(c1nc(C2CC2)no1)N1CCN(CCc2ccncc2)CC1 (configuration not stated) : 13.97%
- CN(Cc1ccccc1CN1CCCC1)C(=O)c1c(O)cccc1O : 9.37%

Once more, the final 3:

| Compound | Percent Effect |
|---|---|
| `COCCN(Cc1c(C)nn(C)c1C)C(=O)C1COc2ccccc2C1` (configuration not stated) | -7.887% |
| `CC(c1nc(C2CC2)no1)N1CCN(CCc2ccncc2)CC1` (configuration not stated) | 13.97% |
| `CN(Cc1ccccc1CN1CCCC1)C(=O)c1c(O)cccc1O` | 9.37% |